Experimental data reported in patent US11992478B2, “Methods of using androgen receptor inhibitors as cancer therapeutics” (THE TRUSTEES OF THE UNIVERSITY OF PENNSYLVANIA, priority 2020, dated 2024).
For at least one compound, name, drawing or mass did not settle the structure.

Columns and labels:
[1] = system: p-ERK (MAPK activation); test: ERK phosphorylation / MAPK activation (Western blot); type: cell-based, human; conditions: with testosterone (FIG. 10B)
[2] = system: mouse melanoma cells (YUMM1.7); test: Cell proliferation of mouse melanoma cells (YUMM1.7); type: cell-based; conditions: murine lines among four melanoma cell lines (FIG. 10C)
[3] = system: melanoma cells; test: Testosterone-induced hyperproliferation in melanoma cells (FIG. 10A); type: cell-based; conditions: 2 μM Bicalutamide (FIG. 10A)
[4] = system: human WM46 melanoma; test: WM46 melanoma tumor growth in SCID mice; type: in vivo
Source text: The tumor-promoting effects of testosterone on early prostate cancer are known, and inhibition of testosterone signaling is a first-line treatment. […] Here it is shown that targeting nonclassical testosterone signaling through ZIP9 is therapeutically useful for cancer (FIG. 13).

[5] = system: human WM46 melanoma cells; test: Cytosolic zinc influx with Fluo-Zin3 reporter; type: cell-based; conditions: WM46, combined with testosterone (FIG. 10D)
[6] = system: human melanoma cells (WM46); test: Cell proliferation of human melanoma cells (WM46); type: cell-based

In the case of `CC(O)(CS(=O)(=O)c1ccc(F)cc1)C(=O)Nc1ccc(C#N)c(C(F)(F)F)c1` (centres unmarked) [bicalutamide], the “effect on testosterone p-ERK induction” value [1] is reported as “completely blocked”, the “effect on cell proliferation driven by testosterone” value [2] is reported as “inhibited” and the “effect on testosterone-induced hyperproliferation” value [3] is reported as “completely block”. For the same compound, the “response of ΔZIP9 tumors to treatment” value ([4]; male mice bearing ΔZIP9 tumors (FIG. 13B)) was “do not respond”, the tumor growth ([4]; male mice, 30 mg/kg/day via oral gavage (FIG. 13A)) was “significantly slowed tumor growth” and the “effect on testosterone-dependent zinc influx” value [5] was “prevents the testosterone-dependent Zinc influx”. For the same compound, the “effect on testosterone driven increased proliferation” value ([6]; WM46 (FIG. 10E)) was “inhibit testosterone driven increased proliferation” and the “effect on cell proliferation driven by testosterone” value ([6]; human lines among four melanoma cell lines (FIG. 10C)) was “inhibited”.
